Experimental data reported in the supplement of paper PMC7661543.
Differences between knockout arms are mostly noise.

Tested on: HCC-38
Test: relative cell number vs DMSO control (72 h) (% of DMSO); higher = less growth inhibition (more cells)
Protocol: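 QMAP-Seq: a pool of 5 breast cancer cell lines (ZR-75-1, SKBR3, HCC-38, MDA-MB-231, BT-20), each carrying 12 doxycycline-inducible Cas9 sgRNA perturbations (11 knockouts plus non-targeting sgNT), was treated with compounds for 72 h at four 10-fold doses (10 nM-10 uM or 1 nM-1 uM range). Barcodes were amplified and sequenced, and cell number was interpolated from 293T spike-in standard curves. The result is expressed as % of the median of DMSO wells. Two biological replicates.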

COc1ccc(-c2ccc3c(N4CCOCC4)nc(N4C[C@@H](C)O[C@@H](C)C4)nc3n2)cc1CO
Conditions | relative cell number
sgRNA knockout: sgATF3, 10 nM | 99.1
sgRNA knockout: sgATF3, 100 nM | 114
sgRNA knockout: sgATF3, 1000 nM | 89.6
sgRNA knockout: sgATF3, 10000 nM | 45.4
sgRNA knockout: sgATF4, 10 nM | 93.2
sgRNA knockout: sgATF4, 100 nM | 106
sgRNA knockout: sgATF4, 1000 nM | 98.4
sgRNA knockout: sgATF4, 10000 nM | 47
sgRNA knockout: sgATF6, 10 nM | 93.2
sgRNA knockout: sgATF6, 100 nM | 109.2
sgRNA knockout: sgATF6, 1000 nM | 93.2
sgRNA knockout: sgATF6, 10000 nM | 46.4
sgRNA knockout: sgATG7, 10 nM | 87.4
sgRNA knockout: sgATG7, 100 nM | 119
sgRNA knockout: sgATG7, 1000 nM | 97.4
sgRNA knockout: sgATG7, 10000 nM | 48.3
sgRNA knockout: sgERN1, 10 nM | 101
sgRNA knockout: sgERN1, 100 nM | 115
sgRNA knockout: sgERN1, 1000 nM | 86.9
sgRNA knockout: sgERN1, 10000 nM | 56.3
sgRNA knockout: sgHSF1, 10 nM | 89.7
sgRNA knockout: sgHSF1, 100 nM | 117
sgRNA knockout: sgHSF1, 1000 nM | 102
sgRNA knockout: sgHSF1, 10000 nM | 49
sgRNA knockout: sgHSF2, 10 nM | 98.9
sgRNA knockout: sgHSF2, 100 nM | 125
sgRNA knockout: sgHSF2, 1000 nM | 96.9
sgRNA knockout: sgHSF2, 10000 nM | 47.5
sgRNA knockout: sgKEAP1, 10 nM | 99.4
sgRNA knockout: sgKEAP1, 100 nM | 129
sgRNA knockout: sgKEAP1, 1000 nM | 92.3
sgRNA knockout: sgKEAP1, 10000 nM | 58
sgRNA knockout: sgNFE2L2, 10 nM | 89.8
sgRNA knockout: sgNFE2L2, 100 nM | 113
sgRNA knockout: sgNFE2L2, 1000 nM | 87.2
sgRNA knockout: sgNFE2L2, 10000 nM | 45.1
sgRNA knockout: sgSLC35F2, 10 nM | 89.2
sgRNA knockout: sgSLC35F2, 100 nM | 113
sgRNA knockout: sgSLC35F2, 1000 nM | 89.3
sgRNA knockout: sgSLC35F2, 10000 nM | 44.8
sgRNA knockout: sgXBP1, 10 nM | 96
sgRNA knockout: sgXBP1, 100 nM | 113
sgRNA knockout: sgXBP1, 1000 nM | 91.9
sgRNA knockout: sgXBP1, 10000 nM | 53.3

C[C@@H](Oc1cc(-n2cnc3ccc(CN4CCN(C)CC4)cc32)sc1C(N)=O)c1ccccc1C(F)(F)F
Conditions | relative cell number
sgRNA knockout: sgATF3, 10 nM | 23.4
sgRNA knockout: sgATF3, 100 nM | 16.1
sgRNA knockout: sgATF3, 1000 nM | 21.5
sgRNA knockout: sgATF3, 10000 nM | 15.1
sgRNA knockout: sgATF4, 10 nM | 19.1
sgRNA knockout: sgATF4, 100 nM | 12.5
sgRNA knockout: sgATF4, 1000 nM | 18
sgRNA knockout: sgATF4, 10000 nM | 14.3
sgRNA knockout: sgATF6, 10 nM | 26.7
sgRNA knockout: sgATF6, 100 nM | 14.8
sgRNA knockout: sgATF6, 1000 nM | 21
sgRNA knockout: sgATF6, 10000 nM | 17
sgRNA knockout: sgATG7, 10 nM | 23.7
sgRNA knockout: sgATG7, 100 nM | 14.7
sgRNA knockout: sgATG7, 1000 nM | 20.7
sgRNA knockout: sgATG7, 10000 nM | 18.1
sgRNA knockout: sgERN1, 10 nM | 23.5
sgRNA knockout: sgERN1, 100 nM | 20.7
sgRNA knockout: sgERN1, 1000 nM | 18.6
sgRNA knockout: sgERN1, 10000 nM | 18.7
sgRNA knockout: sgHSF1, 10 nM | 22.4
sgRNA knockout: sgHSF1, 100 nM | 18
sgRNA knockout: sgHSF1, 1000 nM | 21.9
sgRNA knockout: sgHSF1, 10000 nM | 23.4
sgRNA knockout: sgHSF2, 10 nM | 29.1
sgRNA knockout: sgHSF2, 100 nM | 16.1
sgRNA knockout: sgHSF2, 1000 nM | 18.6
sgRNA knockout: sgHSF2, 10000 nM | 18.8
sgRNA knockout: sgKEAP1, 10 nM | 22.4
sgRNA knockout: sgKEAP1, 100 nM | 23.5
sgRNA knockout: sgKEAP1, 1000 nM | 23
sgRNA knockout: sgKEAP1, 10000 nM | 27.7
sgRNA knockout: sgNFE2L2, 10 nM | 19.9
sgRNA knockout: sgNFE2L2, 100 nM | 11.7
sgRNA knockout: sgNFE2L2, 1000 nM | 17.5
sgRNA knockout: sgNFE2L2, 10000 nM | 13.8
sgRNA knockout: sgSLC35F2, 10 nM | 23.2
sgRNA knockout: sgSLC35F2, 100 nM | 17.5
sgRNA knockout: sgSLC35F2, 1000 nM | 21.9
sgRNA knockout: sgSLC35F2, 10000 nM | 16.5
sgRNA knockout: sgXBP1, 10 nM | 24
sgRNA knockout: sgXBP1, 100 nM | 18.1
sgRNA knockout: sgXBP1, 1000 nM | 21.5
sgRNA knockout: sgXBP1, 10000 nM | 17.2

C[C@@]1(C(=O)Nc2ccc(F)nc2)CCCN1c1nc(Nc2cc(C3CC3)n[nH]2)c2cccn2n1
Conditions | relative cell number
sgRNA knockout: sgATF3, 10 nM | 90.3
sgRNA knockout: sgATF3, 100 nM | 83.3
sgRNA knockout: sgATF3, 1000 nM | 89.2
sgRNA knockout: sgATF3, 10000 nM | 43
sgRNA knockout: sgATF4, 10 nM | 83.3
sgRNA knockout: sgATF4, 100 nM | 80.6
sgRNA knockout: sgATF4, 1000 nM | 87.8
sgRNA knockout: sgATF4, 10000 nM | 44.1
sgRNA knockout: sgATF6, 10 nM | 100
sgRNA knockout: sgATF6, 100 nM | 90
sgRNA knockout: sgATF6, 1000 nM | 81.9
sgRNA knockout: sgATF6, 10000 nM | 41.3
sgRNA knockout: sgATG7, 10 nM | 86.8
sgRNA knockout: sgATG7, 100 nM | 88.7
sgRNA knockout: sgATG7, 1000 nM | 81.9
sgRNA knockout: sgATG7, 10000 nM | 46.3
sgRNA knockout: sgERN1, 10 nM | 84
sgRNA knockout: sgERN1, 100 nM | 94.7
sgRNA knockout: sgERN1, 1000 nM | 87.8
sgRNA knockout: sgERN1, 10000 nM | 43.02
sgRNA knockout: sgHSF1, 10 nM | 96.5
sgRNA knockout: sgHSF1, 100 nM | 91
sgRNA knockout: sgHSF1, 1000 nM | 104
sgRNA knockout: sgHSF1, 10000 nM | 41.2
sgRNA knockout: sgHSF2, 10 nM | 87.4
sgRNA knockout: sgHSF2, 100 nM | 84.7
sgRNA knockout: sgHSF2, 1000 nM | 95.3
sgRNA knockout: sgHSF2, 10000 nM | 44.6
sgRNA knockout: sgKEAP1, 10 nM | 86.9
sgRNA knockout: sgKEAP1, 100 nM | 89.9
sgRNA knockout: sgKEAP1, 1000 nM | 84.8
sgRNA knockout: sgKEAP1, 10000 nM | 43.5
sgRNA knockout: sgNFE2L2, 10 nM | 82.8
sgRNA knockout: sgNFE2L2, 100 nM | 82.7
sgRNA knockout: sgNFE2L2, 1000 nM | 81.7
sgRNA knockout: sgNFE2L2, 10000 nM | 41.9
sgRNA knockout: sgSLC35F2, 10 nM | 88.64
sgRNA knockout: sgSLC35F2, 100 nM | 81.1
sgRNA knockout: sgSLC35F2, 1000 nM | 80.1
sgRNA knockout: sgSLC35F2, 10000 nM | 48.6
sgRNA knockout: sgXBP1, 10 nM | 84.3
sgRNA knockout: sgXBP1, 100 nM | 85.7
sgRNA knockout: sgXBP1, 1000 nM | 83.2
sgRNA knockout: sgXBP1, 10000 nM | 45.8
